Measured values published in the supplement of paper PMC10849652.
The list shows a part of the results.

Sequences of proteins named here, by UniProt entry; tags and fusion partners are left off. A change or cut given only in a name is not applied to a line headed by its entry.
UniProt P98179: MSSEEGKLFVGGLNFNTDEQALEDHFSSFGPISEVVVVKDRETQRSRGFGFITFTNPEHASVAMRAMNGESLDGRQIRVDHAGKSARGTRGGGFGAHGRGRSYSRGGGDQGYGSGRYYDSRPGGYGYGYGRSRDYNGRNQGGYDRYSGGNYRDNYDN
UniProt P78509: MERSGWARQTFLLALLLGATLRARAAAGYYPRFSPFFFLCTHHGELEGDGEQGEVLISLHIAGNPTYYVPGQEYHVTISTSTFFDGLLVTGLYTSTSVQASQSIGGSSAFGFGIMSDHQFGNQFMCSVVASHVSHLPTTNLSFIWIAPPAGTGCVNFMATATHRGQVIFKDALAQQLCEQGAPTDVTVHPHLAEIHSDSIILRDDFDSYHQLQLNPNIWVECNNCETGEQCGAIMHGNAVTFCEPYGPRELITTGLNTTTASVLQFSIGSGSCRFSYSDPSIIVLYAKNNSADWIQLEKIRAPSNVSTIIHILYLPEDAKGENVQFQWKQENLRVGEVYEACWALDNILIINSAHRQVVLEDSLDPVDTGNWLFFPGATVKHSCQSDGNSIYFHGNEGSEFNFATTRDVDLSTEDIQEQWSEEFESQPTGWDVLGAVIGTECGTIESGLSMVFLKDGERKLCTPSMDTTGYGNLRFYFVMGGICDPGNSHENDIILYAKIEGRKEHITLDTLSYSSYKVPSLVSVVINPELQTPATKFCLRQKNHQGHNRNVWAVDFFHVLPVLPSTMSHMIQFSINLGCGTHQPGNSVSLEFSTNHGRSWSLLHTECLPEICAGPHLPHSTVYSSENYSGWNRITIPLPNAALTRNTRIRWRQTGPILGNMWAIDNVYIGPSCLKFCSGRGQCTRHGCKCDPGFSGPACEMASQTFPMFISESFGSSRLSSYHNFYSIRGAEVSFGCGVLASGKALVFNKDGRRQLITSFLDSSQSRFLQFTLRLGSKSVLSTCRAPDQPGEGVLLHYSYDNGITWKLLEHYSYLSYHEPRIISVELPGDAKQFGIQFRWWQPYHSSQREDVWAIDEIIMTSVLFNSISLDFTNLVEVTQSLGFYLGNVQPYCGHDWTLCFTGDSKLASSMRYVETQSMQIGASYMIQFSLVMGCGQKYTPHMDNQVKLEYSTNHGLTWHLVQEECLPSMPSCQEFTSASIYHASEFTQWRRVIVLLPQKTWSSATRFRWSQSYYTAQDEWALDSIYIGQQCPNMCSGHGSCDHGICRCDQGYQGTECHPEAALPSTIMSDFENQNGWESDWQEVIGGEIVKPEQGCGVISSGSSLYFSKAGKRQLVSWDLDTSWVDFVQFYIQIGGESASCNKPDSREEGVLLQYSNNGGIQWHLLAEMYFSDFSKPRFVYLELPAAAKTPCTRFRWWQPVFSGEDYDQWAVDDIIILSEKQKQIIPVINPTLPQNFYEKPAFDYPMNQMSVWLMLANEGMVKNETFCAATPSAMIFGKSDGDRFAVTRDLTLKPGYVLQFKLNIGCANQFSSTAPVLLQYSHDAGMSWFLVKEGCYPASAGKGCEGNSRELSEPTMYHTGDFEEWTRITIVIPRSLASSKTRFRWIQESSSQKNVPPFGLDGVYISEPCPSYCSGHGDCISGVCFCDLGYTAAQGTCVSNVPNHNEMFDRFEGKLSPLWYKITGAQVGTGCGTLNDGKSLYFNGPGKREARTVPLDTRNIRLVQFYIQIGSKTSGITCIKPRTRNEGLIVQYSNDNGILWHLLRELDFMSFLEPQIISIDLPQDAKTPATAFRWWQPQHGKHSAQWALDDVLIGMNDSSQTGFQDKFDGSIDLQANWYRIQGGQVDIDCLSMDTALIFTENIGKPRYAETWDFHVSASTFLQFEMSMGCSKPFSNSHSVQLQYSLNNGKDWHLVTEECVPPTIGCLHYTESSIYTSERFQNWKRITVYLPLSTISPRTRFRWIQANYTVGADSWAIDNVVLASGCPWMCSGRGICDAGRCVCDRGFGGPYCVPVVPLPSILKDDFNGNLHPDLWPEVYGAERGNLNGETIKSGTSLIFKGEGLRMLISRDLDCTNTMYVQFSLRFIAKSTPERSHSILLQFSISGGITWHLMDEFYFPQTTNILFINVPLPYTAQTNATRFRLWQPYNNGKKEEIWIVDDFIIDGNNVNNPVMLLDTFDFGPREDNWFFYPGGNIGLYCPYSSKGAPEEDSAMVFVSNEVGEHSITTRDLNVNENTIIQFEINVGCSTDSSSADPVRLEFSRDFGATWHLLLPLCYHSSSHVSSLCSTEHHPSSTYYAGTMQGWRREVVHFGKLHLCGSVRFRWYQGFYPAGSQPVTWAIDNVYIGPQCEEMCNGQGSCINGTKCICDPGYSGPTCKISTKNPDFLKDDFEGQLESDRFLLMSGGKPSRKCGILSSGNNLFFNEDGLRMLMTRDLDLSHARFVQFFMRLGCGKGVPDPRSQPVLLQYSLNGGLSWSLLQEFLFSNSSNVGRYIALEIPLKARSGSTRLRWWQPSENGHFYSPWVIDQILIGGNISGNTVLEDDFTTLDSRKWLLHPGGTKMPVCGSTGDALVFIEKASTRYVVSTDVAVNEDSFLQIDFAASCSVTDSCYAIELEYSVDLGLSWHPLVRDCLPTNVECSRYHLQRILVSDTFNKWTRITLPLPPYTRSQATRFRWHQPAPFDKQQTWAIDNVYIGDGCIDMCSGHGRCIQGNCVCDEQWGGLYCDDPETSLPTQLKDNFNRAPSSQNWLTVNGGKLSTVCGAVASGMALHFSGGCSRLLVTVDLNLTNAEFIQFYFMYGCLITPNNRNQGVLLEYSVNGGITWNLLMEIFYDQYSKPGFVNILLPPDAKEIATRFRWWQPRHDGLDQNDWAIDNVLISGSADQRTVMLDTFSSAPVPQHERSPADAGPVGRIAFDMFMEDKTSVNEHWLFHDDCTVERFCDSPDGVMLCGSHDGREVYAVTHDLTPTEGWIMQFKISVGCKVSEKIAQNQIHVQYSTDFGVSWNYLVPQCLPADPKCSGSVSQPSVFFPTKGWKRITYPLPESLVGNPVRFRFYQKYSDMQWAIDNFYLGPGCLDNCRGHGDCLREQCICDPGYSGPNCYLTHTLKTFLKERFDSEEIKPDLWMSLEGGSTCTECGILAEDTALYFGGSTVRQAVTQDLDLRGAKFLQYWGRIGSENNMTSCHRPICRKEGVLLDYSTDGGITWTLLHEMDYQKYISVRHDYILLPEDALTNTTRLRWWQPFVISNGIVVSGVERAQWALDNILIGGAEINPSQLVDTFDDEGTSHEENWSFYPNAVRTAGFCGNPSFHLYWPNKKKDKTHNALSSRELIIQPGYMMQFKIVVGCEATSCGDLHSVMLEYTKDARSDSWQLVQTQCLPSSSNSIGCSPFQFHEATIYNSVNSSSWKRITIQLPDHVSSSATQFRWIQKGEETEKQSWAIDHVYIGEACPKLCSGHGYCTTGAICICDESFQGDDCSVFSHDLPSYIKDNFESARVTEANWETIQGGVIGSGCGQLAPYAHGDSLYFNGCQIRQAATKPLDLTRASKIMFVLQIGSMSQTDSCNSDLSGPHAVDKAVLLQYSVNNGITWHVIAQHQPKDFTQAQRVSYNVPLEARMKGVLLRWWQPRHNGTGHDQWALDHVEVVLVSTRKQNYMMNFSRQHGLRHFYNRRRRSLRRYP
UniProt Q13127: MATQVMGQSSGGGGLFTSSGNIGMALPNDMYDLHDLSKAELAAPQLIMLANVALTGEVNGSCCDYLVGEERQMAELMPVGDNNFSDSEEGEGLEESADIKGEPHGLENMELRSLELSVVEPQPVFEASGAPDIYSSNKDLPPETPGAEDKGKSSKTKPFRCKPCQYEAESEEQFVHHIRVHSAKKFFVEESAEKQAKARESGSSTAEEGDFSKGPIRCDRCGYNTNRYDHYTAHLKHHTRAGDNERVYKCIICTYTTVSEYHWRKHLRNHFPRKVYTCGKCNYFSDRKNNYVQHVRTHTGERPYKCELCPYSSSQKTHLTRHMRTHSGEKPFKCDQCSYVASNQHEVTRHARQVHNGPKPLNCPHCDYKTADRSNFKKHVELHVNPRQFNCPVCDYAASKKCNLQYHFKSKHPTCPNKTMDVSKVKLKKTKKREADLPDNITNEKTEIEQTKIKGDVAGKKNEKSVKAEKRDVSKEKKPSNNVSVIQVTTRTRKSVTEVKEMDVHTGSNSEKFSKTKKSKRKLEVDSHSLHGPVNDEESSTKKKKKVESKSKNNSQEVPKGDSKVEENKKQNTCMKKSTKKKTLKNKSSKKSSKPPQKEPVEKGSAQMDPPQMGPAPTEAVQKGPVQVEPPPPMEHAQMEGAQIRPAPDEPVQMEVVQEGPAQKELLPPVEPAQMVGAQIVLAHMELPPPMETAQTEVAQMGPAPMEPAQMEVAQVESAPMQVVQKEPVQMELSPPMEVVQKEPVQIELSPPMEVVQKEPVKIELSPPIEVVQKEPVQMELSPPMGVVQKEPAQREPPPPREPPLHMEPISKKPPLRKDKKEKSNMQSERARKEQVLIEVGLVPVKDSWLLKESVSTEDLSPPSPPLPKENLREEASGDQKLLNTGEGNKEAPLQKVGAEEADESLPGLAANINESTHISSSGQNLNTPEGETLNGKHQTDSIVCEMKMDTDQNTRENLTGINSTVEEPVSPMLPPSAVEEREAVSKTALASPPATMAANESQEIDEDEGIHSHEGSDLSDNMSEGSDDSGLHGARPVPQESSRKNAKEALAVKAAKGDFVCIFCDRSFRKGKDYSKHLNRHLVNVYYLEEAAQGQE
UniProt Q8N1G1: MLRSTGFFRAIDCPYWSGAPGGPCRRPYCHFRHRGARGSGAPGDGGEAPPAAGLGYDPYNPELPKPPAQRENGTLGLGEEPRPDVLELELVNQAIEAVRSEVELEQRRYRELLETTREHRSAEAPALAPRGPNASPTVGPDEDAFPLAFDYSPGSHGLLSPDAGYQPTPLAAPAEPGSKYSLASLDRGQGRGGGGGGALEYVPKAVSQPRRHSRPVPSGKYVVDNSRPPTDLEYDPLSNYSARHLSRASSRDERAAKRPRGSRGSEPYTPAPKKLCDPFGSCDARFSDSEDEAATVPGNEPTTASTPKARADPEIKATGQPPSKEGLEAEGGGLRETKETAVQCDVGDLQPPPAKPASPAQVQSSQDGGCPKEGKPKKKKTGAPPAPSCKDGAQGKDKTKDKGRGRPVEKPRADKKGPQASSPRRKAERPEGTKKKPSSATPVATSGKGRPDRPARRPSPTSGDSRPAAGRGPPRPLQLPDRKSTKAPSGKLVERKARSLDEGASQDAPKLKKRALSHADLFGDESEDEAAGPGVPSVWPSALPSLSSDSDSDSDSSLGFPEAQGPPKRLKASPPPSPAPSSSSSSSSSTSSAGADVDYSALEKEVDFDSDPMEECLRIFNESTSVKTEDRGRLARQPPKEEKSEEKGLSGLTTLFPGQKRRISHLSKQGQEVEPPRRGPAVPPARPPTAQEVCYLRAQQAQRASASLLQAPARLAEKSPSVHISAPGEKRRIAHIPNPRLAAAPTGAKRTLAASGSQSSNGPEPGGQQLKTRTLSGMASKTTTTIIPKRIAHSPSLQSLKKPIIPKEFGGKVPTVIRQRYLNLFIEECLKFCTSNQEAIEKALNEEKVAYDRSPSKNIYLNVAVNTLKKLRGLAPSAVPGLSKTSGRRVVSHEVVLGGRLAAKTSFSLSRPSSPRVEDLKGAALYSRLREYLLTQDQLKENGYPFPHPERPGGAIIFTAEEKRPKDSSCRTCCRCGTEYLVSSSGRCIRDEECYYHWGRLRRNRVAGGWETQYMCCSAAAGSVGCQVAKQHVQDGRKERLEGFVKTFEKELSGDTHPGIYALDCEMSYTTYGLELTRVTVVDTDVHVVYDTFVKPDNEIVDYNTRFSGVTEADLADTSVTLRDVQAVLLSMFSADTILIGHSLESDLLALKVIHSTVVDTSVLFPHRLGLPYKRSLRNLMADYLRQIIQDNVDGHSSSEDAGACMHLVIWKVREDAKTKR
UniProt O75884: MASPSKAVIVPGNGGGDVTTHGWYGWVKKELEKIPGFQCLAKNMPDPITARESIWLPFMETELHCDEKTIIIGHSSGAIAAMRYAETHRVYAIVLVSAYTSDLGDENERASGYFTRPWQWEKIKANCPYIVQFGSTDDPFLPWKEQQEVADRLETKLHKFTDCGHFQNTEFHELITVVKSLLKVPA
UniProt Q6NUK4: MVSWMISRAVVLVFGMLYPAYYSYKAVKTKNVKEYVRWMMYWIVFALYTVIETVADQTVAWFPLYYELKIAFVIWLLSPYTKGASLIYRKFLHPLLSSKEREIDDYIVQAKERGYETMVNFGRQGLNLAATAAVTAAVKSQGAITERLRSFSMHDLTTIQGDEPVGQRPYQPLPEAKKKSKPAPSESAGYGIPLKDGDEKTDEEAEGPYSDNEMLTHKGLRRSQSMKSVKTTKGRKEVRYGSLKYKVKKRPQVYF
UniProt Q9H4X1: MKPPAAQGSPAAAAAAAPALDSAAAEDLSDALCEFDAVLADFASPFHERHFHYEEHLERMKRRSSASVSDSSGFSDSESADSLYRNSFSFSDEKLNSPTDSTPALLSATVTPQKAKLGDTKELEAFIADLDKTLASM

Columns and labels:
Assay in all cases: log2 fold change, soluble protein after heating vs DMSO (PISA); higher = thermal stabilisation; K562 lysate, 10 uM; active = over 0.2 and 3.5 SD of the protein, either way, in both replicates (recomputed)
erlotinib = compound: C#Cc1cccc(Nc2ncnc3cc(OCCOC)c(OCCOC)cc23)c1 [erlotinib]
Summary of the method: (§1)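 Thermal stability, expressed as log-two fold change relative to solvent controls, is given from duplicates. Crude K562 extract in PBS pH 7.4 with 1 mM MgCl2, at 1 mg/mL protein, was treated with 10 μM compound for 30 min and heated in aliquots for 3 min across 48°C-58°C. After pooling, adjustment to 0.5% NP-40 at 4°C and centrifugation at 21,000xg for 90 min, supernatant protein was measured by TMTpro 16plex LC-MS/MS with channel sums equalised.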

[1] = compound: C/C(=N\NC(=O)C1=CC(=CC=C1)S(=O)(=O)N2CCOCC2)/C3=C(C=CC(=C3)Cl)O
Summary of the method: as §1

[2] = compound: C1=CC(=CC=C1C2=NC3=C(N2)C=C(C=C3)C(=O)N)OC4=CC=C(C=C4)Cl
Summary of the method: as §1

[3] = compound: C1=CC2=C(C=CC(=C2)/C=C\3/C(=O)NC(=NCC4=CC=CS4)S3)N=C1
Summary of the method: as §1

[4] = compound: C1=CC2=NC=CN=C2C=C1/C=C/3\C(=O)NC(=O)S3
Summary of the method: as §1

[5] = compound: C1=CC=C(C=C1)C2=NC(=C(N2)C3=CC=NC=C3)C4=CC(=C(C=C4)Cl)O
Summary of the method: as §1

[6] = compound: C1=CC=C2C(=C1)C3=NNC4=CC=CC(=C43)C2=O
Summary of the method: as §1

[7] = compound: C1CCN(C1)C(=O)NC2=CC=CC(=C2)NC3=NC=C(C(=N3)NCCC4=CN=CN4)Br
Summary of the method: as §1

[8] = compound: C1CN(CCC1(CC2=CC=C(C=C2)Cl)N)C3=NC=NC4=C3C=CN4
Summary of the method: as §1

IRAK-1-4 Inhibitor I = compound: C1COCCN1CCN2C3=CC=CC=C3N=C2NC(=O)C4=CC(=CC=C4)[N+](=O)[O-] [IRAK-1-4 Inhibitor I]
Summary of the method: as §1

ibrutinib = compound: C=CC(=O)N1CCC[C@@H](n2nc(-c3ccc(Oc4ccccc4)cc3)c3c(N)ncnc32)C1 [ibrutinib]
Summary of the method: as §1

[9] = compound: CC(=O)c1cnc2ccc(-c3cc(Cl)c(O)c(Cl)c3)nc2c1N[C@H]1CC[C@H](CN(C)C)CC1
Summary of the method: as §1

ralimetinib = compound: CC(C)(C)Cn1c(N)nc2ccc(-c3[nH]c(C(C)(C)C)nc3-c3ccc(F)cc3)nc21 [ralimetinib]
Summary of the method: as §1

[10] = compound: CC(C)(O)CC(=O)NCCn1ccc2ncnc(Nc3ccc(Oc4cccc(C(F)(F)F)c4)c(Cl)c3)c21
Summary of the method: as §1

[11] = compound: CC(C)C1=C2N=C(C=C(N2N=C1)NCC3=CC=CC=C3)NCCCCCCN
Summary of the method: as §1

[12] = compound: CC1=C(C(CC(=O)N1)C2=CC=C(C=C2)C(F)(F)F)C(=O)NC3=C(C=C4C(=C3)C=NN4)F
Summary of the method: as §1

[13] = compound: CC1=C(C2=C(C=C1)C(=O)C3=CC=CC=C3N2CCCN)C
Summary of the method: as §1

[14] = compound: CC1=C(C=C(C=C1)NC(=O)C2=CC(=CC=C2)C(C)(C)C#N)NC3=CC4=C(C=C3)N=CN(C4=O)C
Summary of the method: as §1

[15] = compound: CC1=C(C=C(C=C1)NC(=O)C2=CC(=CC=C2)N(C)C)NC(=O)C3=CC=C(C=C3)O
Summary of the method: as §1

[16] = compound: CC1=CC=C(C=C1)SC2=C3C=C(SC3=CN=C2)C(=O)N
Summary of the method: as §1

Measured: log2 fold change

RBM3 (UniProt P98179)
inactive: erlotinib -0.031 | [1] -0.023 | [2] -0.067 | [3] -0.013 | [4] 0.044 | [5] 0.016 | [6] 0.055 | [7] 0.109 | [8] -0.044 | IRAK-1-4 Inhibitor I -0.001 | ibrutinib -0.012 | [9] 0.022 | ralimetinib 0.077 | [10] 0.088 | [11] 0.003 | [12] -0.097 | [13] -0.007 | [14] -0.108 | [15] -0.005 | [16] 0.089

RBM10 isoform 5 (UniProt P98175)
inactive: erlotinib -0.018 | [1] -0.036 | [2] 0.005 | [3] -0.009 | [4] -0.068 | [5] 0.033 | [6] -0.018 | [7] -0.023 | [8] -0.02 | IRAK-1-4 Inhibitor I 0.003 | ibrutinib 0.003 | [9] 0.004 | ralimetinib -0.025 | [10] -0.038 | [11] 0.019 | [12] 0.014 | [13] 0.005 | [14] 0.044 | [15] -0.02 | [16] -0.007

RBM48 isoform 2 (UniProt Q5RL73)
inactive: erlotinib 0.011 | [1] 0.079 | [2] 0.133 | [3] 0.187 | [5] 0.065 | [6] -0.009 | [7] 0.033 | [8] -0.078 | IRAK-1-4 Inhibitor I 0.08 | ralimetinib -0.008 | [10] -0.05 | [11] 0.006 | [13] -0.11 | [14] -0.005 | [15] 0.013

RETSAT (UniProt Q6NUM9)
inactive: erlotinib -0.092 | [1] 0.054 | [2] 0.026 | [3] 0.021 | [4] -0.092 | [5] -0.004 | [6] -0.152 | [7] -0.077 | [8] -0.052 | IRAK-1-4 Inhibitor I 0.148 | ibrutinib -0.091 | [9] 0.073 | ralimetinib -0.057 | [10] -0.134 | [11] 0.07 | [13] -0.113 | [14] 0.226 | [15] -0.015 | [16] -0.24

Random excerpt: two records from the list.
RBM10 isoform 5 (UniProt P98175)
inactive: erlotinib -0.018 | [1] -0.036 | [2] 0.005 | [3] -0.009 | [4] -0.068 | [5] 0.033 | [6] -0.018 | [7] -0.023 | [8] -0.02 | IRAK-1-4 Inhibitor I 0.003 | ibrutinib 0.003 | [9] 0.004 | ralimetinib -0.025 | [10] -0.038 | [11] 0.019 | [12] 0.014 | [13] 0.005 | [14] 0.044 | [15] -0.02 | [16] -0.007

RBM48 isoform 2 (UniProt Q5RL73)
inactive: erlotinib 0.011 | [1] 0.079 | [2] 0.133 | [3] 0.187 | [5] 0.065 | [6] -0.009 | [7] 0.033 | [8] -0.078 | IRAK-1-4 Inhibitor I 0.08 | ralimetinib -0.008 | [10] -0.05 | [11] 0.006 | [13] -0.11 | [14] -0.005 | [15] 0.013

Following part

RELN (UniProt P78509)
inactive: erlotinib 0.012 | [1] 0.004 | [2] 0.014 | [3] 0.025 | [4] 0.001 | [5] 0.033 | [6] -0.015 | [7] 0.042 | [8] 0.058 | IRAK-1-4 Inhibitor I 0.002 | ibrutinib 0.011 | ralimetinib 0.011 | [10] -0.038 | [11] -0.039 | [12] -0.01 | [13] 0 | [14] -0.002 | [15] 0.041 | [16] 0.09
active: [9] -0.237

RBM22 (UniProt Q9NW64)
inactive: erlotinib 0.028 | [1] -0.005 | [2] 0.025 | [3] -0.07 | [4] 0.013 | [5] -0.034 | [6] -0.021 | [7] -0.02 | [8] 0.009 | IRAK-1-4 Inhibitor I 0.018 | ibrutinib 0.01 | [9] -0.007 | ralimetinib -0.03 | [10] -0.044 | [11] -0.033 | [12] 0.009 | [13] -0.014 | [14] 0.043 | [15] -0.01 | [16] -0.006

RCBTB1 (UniProt Q8NDN9)
inactive: erlotinib -0.102 | [2] 0.099 | [5] 0 | IRAK-1-4 Inhibitor I 0.142 | ralimetinib 0.041 | [10] -0.239 | [11] 0.213 | [12] -0.046 | [14] -0.107 | [15] 0.045

REST (UniProt Q13127)
inactive: erlotinib 0.111 | [1] 0.041 | [2] 0.004 | [3] 0.1 | [5] 0.05 | [6] -0.104 | IRAK-1-4 Inhibitor I 0.013 | [9] -0.016 | ralimetinib -0.064 | [10] -0.025 | [11] -0.472 | [13] -0.014 | [14] 0.143 | [15] -0.014 | [16] -0.059

RBFOX2 isoform 8 (UniProt O43251)
inactive: erlotinib -0.052 | [2] -0.184 | [4] 0.106 | [5] -0.168 | [7] -0.028 | [8] -0.182 | IRAK-1-4 Inhibitor I 0.089 | ibrutinib -0.293 | [9] 0.025 | ralimetinib -0.036 | [10] -0.086 | [11] -0.174 | [13] -0.048 | [14] -0.268 | [15] 0.005 | [16] 0.11

RGS3 (UniProt P49796)
inactive: erlotinib 0.035 | [2] 0.027 | [4] -0.006 | [5] -0.186 | IRAK-1-4 Inhibitor I -0.044 | ibrutinib 0.116 | [9] 0.083 | ralimetinib 0.072 | [10] 0.048 | [11] 0.038 | [12] -0.087 | [14] -0.001 | [15] -0.024 | [16] -0.023

RAVER2 (UniProt Q9HCJ3)
inactive: erlotinib -0.208 | [2] 0.07 | [5] 0.031 | [7] 0.248 | [8] -0.142 | IRAK-1-4 Inhibitor I 0.056 | ralimetinib -0.056 | [10] -0.039 | [11] -0.107 | [13] -0.076 | [14] 0.066 | [15] -0.041

REXO1 (UniProt Q8N1G1)
inactive: erlotinib -0.154 | [2] -0.03 | [4] -0.004 | [5] 0.039 | IRAK-1-4 Inhibitor I -0.007 | ibrutinib -0.01 | ralimetinib -0.01 | [10] -0.03 | [11] 0.034 | [12] 0.11 | [14] 0.09 | [15] 0.182

RECQL4 (UniProt O94761)
inactive: erlotinib -0.041 | [1] 0.023 | [2] -0.025 | [3] 0.195 | [4] -0.081 | [5] 0.018 | [6] -0.039 | [7] -0.035 | [8] 0.013 | IRAK-1-4 Inhibitor I 0.015 | ibrutinib 0.016 | ralimetinib -0.034 | [10] -0.06 | [11] 0.039 | [12] -0.017 | [13] 0.076 | [14] 0 | [15] 0.044

RBM15 (UniProt Q96T37)
inactive: erlotinib -0.035 | [1] -0.117 | [2] 0.04 | [3] -0.023 | [4] -0.101 | [5] 0.064 | [6] -0.047 | [7] -0.1 | [8] 0.014 | IRAK-1-4 Inhibitor I -0.288 | ibrutinib -0.113 | [9] 0.01 | ralimetinib -0.067 | [10] 0.064 | [11] 0.007 | [13] 0.017 | [14] -0.036 | [15] 0.036 | [16] 0.045

RBBP9 (UniProt O75884)
inactive: erlotinib -0.14 | [1] 0.161 | [2] -0.063 | [3] 0.058 | [4] -0.034 | [5] 0.115 | [6] 0.045 | IRAK-1-4 Inhibitor I -0.041 | ibrutinib -0.008 | ralimetinib -0.059 | [10] -0.017 | [11] -0.005 | [14] 0.086 | [15] 0.086

REEP3 (UniProt Q6NUK4)
inactive: erlotinib 0.017 | [1] -0.049 | [2] 0.016 | [3] 0.015 | [4] -0.123 | [5] 0.043 | [6] -0.003 | IRAK-1-4 Inhibitor I -0.05 | ibrutinib 0.105 | [9] 0.037 | ralimetinib 0.072 | [10] 0.073 | [11] -0.035 | [12] -0.017 | [14] -0.01 | [15] -0.007 | [16] 0.047

RGCC (UniProt Q9H4X1)
inactive: erlotinib -0.108 | [1] 0.188 | [2] -0.096 | [3] -0.118 | [5] -0.013 | [6] 0.009 | IRAK-1-4 Inhibitor I 0.125 | ralimetinib 0.03 | [10] -0.07 | [11] -0.119 | [15] 0.025

RFWD3 (UniProt Q6PCD5)
inactive: erlotinib -0.12 | [1] 0.005 | [2] 0.048 | [3] -0.061 | [4] 0.062 | [5] 0.029 | [6] -0.039 | [7] -0.086 | [8] 0.053 | IRAK-1-4 Inhibitor I 0.054 | ibrutinib -0.001 | ralimetinib 0.039 | [10] -0.059 | [11] 0.066 | [12] 0.059 | [13] -0.06 | [14] 0.087 | [15] -0.007

RGS14 (UniProt O43566)
inactive: erlotinib 0.063 | [2] -0.109 | [4] -0.189 | [5] -0.09 | [7] -0.168 | [8] 0.138 | IRAK-1-4 Inhibitor I -0.006 | ibrutinib -0.08 | [9] 0.035 | ralimetinib 0.112 | [10] 0.009 | [11] -0.123 | [12] 0.087 | [13] -0.033 | [14] 0.169 | [15] 0 | [16] -0.004
